19 molecules from article PMC10163288 can be followed below.

First the molecules themselves.
B1: il10ra_site1_normal_mot_HHH_b1_05326_000000242_0001_1_20_H_._HHH_b1_07949_af2_0001_0000600011_0000001_0 (protein)
chain: SSSSNDEALELSQEAFRLALRGDLEEALEVLEEAAEIAEKNGDERLLETIEELLKSIRRLLSSSS
B2: il10ra_site1_normal_mot_HHH_b2_00984_000000042_0001_1_20_H_._HHH_b1_02950_0001_0000600024_0000001_0 (protein)
chain: SSSSSTKFYELAQRALRFAFRLSDQETLQRIWELIKEYVEHGDPRIEEELEELLEELEERSSSSS
B3: il10ra_site1_normal_mot_HHH_b1_06798_000000292_0001_1_19_H_._HHH_b2_05133_0001_0000100004_0000001_0 (protein)
chain: SSSSTLEFSVKFALREAEELLEEGDPEKARIILERLLEHLKEAGDEELFEEVEHLLREVEGSSSS
B4: il10ra_site1_sap_15_mot_HHH_b2_07596_000000080_0001_23_39_H_._HHH_b1_03720_0001_0000100009_0000001_0_0001 (protein)
chain: SSSSDEEEKEVEEILEEIERLIREGNPEEAARLIQELLQLIYRIKNPELLRELWELIRELASSSS
B5: il10ra_site1_normal_mot_ems_3hM_235_000000244_0001_46_64_H_._HHH_b2_07413_0001_0000100001_0000001_0 (protein)
chain: SSSSDVLEEVWELSRKVAELIRNGNPEEARELVEEIEELAKEFNNELVEFIARQLKLLIDSSSSS
B6: il10ra_site1_sap_25_mot_HHH_b2_04327_000000030_0001_41_55_H_._HHH_b2_00910_af2_0001_0000100003_0000001_0_0001 (protein)
chain: SSSSDKEKRELVEAAVRMAKQFSEEVVKFLLEAAEILAEDLNDPELRKLVEELEEYLEELSSSSS
B7: il10ra_site1_sap_7_mot_HHH_b2_00943_af2_000000149_0001_1_17_H_._HHH_b1_05509_0001_0000300007_0000001_0_0001_af2pred_0001 (protein)
chain: SSSSSSEEQERSLRHLIKAAKLIEDPELAKLSLRVAKRIAEAAGDEELLKEIEELLEELNSSSSS
B8: il10ra_site1_normal_mot_HHH_b1_07743_af2_000000164_0001_42_55_H_._HHH_b2_01433_0001_0000200017_0000001_0_af2pred_0001 (protein)
chain: SSSSSEEARRVARLLIEAIELAEKGNPEEAREVLEEAREIAEEAGDDILRATVEVARELVESSSS
B9: il10ra_site1_normal_mot_HHH_b2_02736_000000092_0001_22_38_H_._HHH_b2_05333_af2_0001_0000500039_0000001_0 (protein)
chain: SSSSSSDELEELEEKLEEAVERGDTQLIYRLLRRLIELARELRDEEAQELARRVVRRISSSSSSS
B10: il10ra_site1_sap_13_mot_HHH_b1_05860_000000142_0001_1_19_H_._HHH_b2_03829_0001_0000100004_0000001_0_0001 (protein)
chain: SSSSSEELEEAFRALRRLAELAHEGNPEEFKELAEKAQEIVEELGNRLLEVQLEFLKRRVLSSSS
B11: il10ra_site1_sap_19_mot_HHH_b2_04275_000000272_0001_20_36_H_._HHH_b2_06282_0001_0000300024_0000001_0_0001 (protein)
chain: SSSSDRAHEVYELSREAAELLREGDPEEARKLLEEAEELAEEAGSFSTLFSVRHMLKDLNSSSSS
B12: il10ra_site1_sap_31_mot_HHH_b2_07521_000000141_0001_20_37_H_._HHH_b2_03573_0001_0000200010_0000001_0_0001_af2pred_0001 (protein)
chain: SSSSSSSSSEEIFKLLREALEIDDPEEAREVVEEALRLAEEAGNLSFRRSAEFILEQLSSSSSSS
B13: il10ra_site1_sap_21_mot_HHH_b2_00293_000000095_0001_1_20_H_._HHH_eva_0545_0001_0000100005_0000002_0_0001 (protein)
chain: SSSSSDQQERVFREVAKLIERALRVSEEEAEELLERAKELAEELGNEYLRRAIEHAARARSSSSS
B14: il10ra_site1_sap_32_mot_HHH_b1_02492_000000051_0001_1_21_H_._HHH_b2_00563_af2_0001_0000200008_0000001_0_0001 (protein)
chain: SSSSDAHELYELLREAAELLADGNPEEARKLLEEAQEIAEEANNRVLLHTIRYVLEQVERASSSS
B15: il10ra_site1_sap_22_mot_HHH_b2_00273_000000062_0001_23_39_H_._HHH_b1_04796_af2_0002_0000200014_0000001_0_0001 (protein)
chain: SSSSDLSQEVFELSEEAAKLLHEGDPEEAREILEEAERLAEEAGNDNFKFAVRFLLKLLNSSSSS
B16: il10ra_site1_normal_mot_8756ee2cf497b5429c717dfc0c0bcfd6_0001_000000186_0001_1_13_H_._HHH_b2_05202_0001_0000200009_0000001_0_af2pred_0001 (protein)
chain: SSSSSSEESERIAELLRKALHISDEEEVREILEEARELAEEANSLNLRAVIEYLQKLLDSSSSSS
B17: il10ra_site1_sap_16_mot_HHH_b2_03328_af2_000000127_0001_1_19_H_._HHH_b2_04136_0001_0000100005_0000001_0_0001 (protein)
chain: SSSSDQERLEVRAILWFAKFTRNPDARRALLEAAKRIAEEAGDPEAEELVREVEEELERRSSSSS
B18: il10ra_site1_sap_12_mot_3fa423bb51912141a3931b06376c3fac_0001_af2_000000012_0001_37_50_H_._261ae5509348a94b37e27fd3a74e589d_0001_1_0001_0000200005_0000001_0_000 … (protein)
chain: SSSSSSDAEEEVERLLEEAKHVSRHRASHLLIQAYAIANQRNNEELLRLVEEVAKERISSSSSSS
B19: il10ra_site1_sap_4_mot_HHH_b1_06788_af2_000000238_0001_19_36_H_._HHH_b1_03008_af2_0001_0000100001_0000001_0_0001_af2pred_0001 (protein)
chain: SSSSDDEEFERVAELLRRVNELARRGNPEEAERLLEEAKELAEEANNPYLELSIRFAEKRNSSSS

This is one part of the list.

The target in this assay is il10ra, Q13651. The assay is described as follows: yeast display titration.
B1: the “apparent Kd” value is “inactive: no binding seen”.

Take B2: the “apparent Kd” value is “inactive: no binding seen”.

In the case of B3, the “apparent Kd” value was “inactive: no binding seen”.

Turning to B4, the “apparent Kd” value is “inactive: no binding seen”.

As for B5, the “apparent Kd” value is “inactive: no binding seen”.

Take B6: the “apparent Kd” value was “inactive: no binding seen”.

Regarding B7, the “apparent Kd” value is “inactive: no binding seen”.

For the molecule B8, the “apparent Kd” value is “inactive: no binding seen”.

In the case of B9, the apparent Kd is inactive: > 1.27 µM.

In the case of B10, the “apparent Kd” value was “inactive: no binding seen”.

Take B11: the “apparent Kd” value is “inactive: no binding seen”.

On to B12, for which the “apparent Kd” value was “inactive: no binding seen”.

Consider B13, for which the “apparent Kd” value was “inactive: no binding seen”.

Regarding B14, the “apparent Kd” value is “inactive: no binding seen”.

In the case of B15, the “apparent Kd” value was “inactive: no binding seen”.

As to B16, the “apparent Kd” value was “inactive: no binding seen”.

As for B17, the “apparent Kd” value was “inactive: no binding seen”.

Regarding B18, the “apparent Kd” value is “inactive: no binding seen”.

Regarding B19, the “apparent Kd” value was “inactive: no binding seen”.
